According to article PMC6692485:
No constants are given. Whether binding was seen depends on the method and setting. Binding seen in cells or lysates may run through a third protein. Some binding calls cover weakened binding; strength is not graded here.

Sequences of proteins named here, by UniProt entry; tags and fusion partners are left off.
UniProt O14980: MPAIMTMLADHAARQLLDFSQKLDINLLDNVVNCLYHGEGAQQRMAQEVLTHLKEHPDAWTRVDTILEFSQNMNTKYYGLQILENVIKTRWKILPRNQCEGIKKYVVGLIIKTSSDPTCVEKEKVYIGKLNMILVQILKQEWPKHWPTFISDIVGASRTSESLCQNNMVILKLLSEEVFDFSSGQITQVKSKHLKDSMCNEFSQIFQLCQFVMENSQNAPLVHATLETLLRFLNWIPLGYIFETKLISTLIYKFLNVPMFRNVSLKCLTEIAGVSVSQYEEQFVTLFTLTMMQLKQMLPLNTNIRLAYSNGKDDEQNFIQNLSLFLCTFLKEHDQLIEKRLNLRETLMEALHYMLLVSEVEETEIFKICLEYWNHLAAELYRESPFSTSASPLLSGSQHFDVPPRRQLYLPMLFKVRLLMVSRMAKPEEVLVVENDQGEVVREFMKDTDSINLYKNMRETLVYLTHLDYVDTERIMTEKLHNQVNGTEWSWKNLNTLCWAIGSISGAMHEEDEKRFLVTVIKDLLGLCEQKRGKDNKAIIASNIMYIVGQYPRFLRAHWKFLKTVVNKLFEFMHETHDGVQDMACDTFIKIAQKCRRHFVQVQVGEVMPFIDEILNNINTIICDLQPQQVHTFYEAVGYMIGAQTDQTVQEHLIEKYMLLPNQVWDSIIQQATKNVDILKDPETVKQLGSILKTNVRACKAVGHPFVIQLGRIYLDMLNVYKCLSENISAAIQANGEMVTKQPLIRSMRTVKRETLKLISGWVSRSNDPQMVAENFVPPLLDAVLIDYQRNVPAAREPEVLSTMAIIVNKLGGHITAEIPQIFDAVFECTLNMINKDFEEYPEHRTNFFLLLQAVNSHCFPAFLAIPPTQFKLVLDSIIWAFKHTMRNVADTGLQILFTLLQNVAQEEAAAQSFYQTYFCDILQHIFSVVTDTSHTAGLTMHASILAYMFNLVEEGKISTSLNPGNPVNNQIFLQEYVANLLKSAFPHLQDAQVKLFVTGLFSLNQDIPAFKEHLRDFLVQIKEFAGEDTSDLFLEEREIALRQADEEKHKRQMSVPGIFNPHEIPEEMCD
UniProt P15682: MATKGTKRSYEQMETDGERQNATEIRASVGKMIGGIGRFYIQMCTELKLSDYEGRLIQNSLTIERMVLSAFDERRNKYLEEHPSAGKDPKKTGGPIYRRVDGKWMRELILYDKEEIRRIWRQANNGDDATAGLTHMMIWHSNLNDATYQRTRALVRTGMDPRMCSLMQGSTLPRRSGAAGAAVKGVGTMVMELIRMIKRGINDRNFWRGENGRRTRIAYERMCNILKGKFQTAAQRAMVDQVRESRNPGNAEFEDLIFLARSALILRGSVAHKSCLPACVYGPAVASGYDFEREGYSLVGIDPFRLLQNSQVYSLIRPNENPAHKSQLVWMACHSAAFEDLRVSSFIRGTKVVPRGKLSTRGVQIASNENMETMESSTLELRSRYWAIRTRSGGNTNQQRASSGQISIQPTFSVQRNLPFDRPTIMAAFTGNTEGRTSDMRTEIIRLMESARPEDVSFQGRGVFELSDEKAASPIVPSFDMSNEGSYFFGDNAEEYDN

Target: FLAG-CRM1 (cellular export receptor CRM1, Chromosome Region Maintenance protein 1) (UniProt O14980)
Assay: co-IP

Substance: MYC-NP, wild type (nucleoprotein of influenza virus A/WSN/1933 (H1N1)) (from UniProt P15682 1-498)
- binding: binds
